Data published in the supplement of paper PMC11438910.
The other results are listed elsewhere or left out. The signal is at background level for most entries.

Tests used:
Assay in all cases: fluorescence intensity of antibody binding to polysaccharide-coupled beads; higher = stronger binding
[1] = target: pneumococcal polysaccharide Pn38
Description: (§1)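 Recombinant rhesus-murine chimeric IgG1 antibodies were tested against antigen-coupled MagPlex beads in a 96-plex Luminex direct immunoassay (dLIA). The beads carried pneumococcal capsular polysaccharides of 93 serotypes plus C-polysaccharides. Antibody was added at 0.1–12,500 ng/mL for 1 h, then PE anti-mouse IgG, and net MFI was read on a Bio-Plex 3D. Only the rhesus variable regions are printed; constant regions are murine IgG1/kappa/lambda, and the signal peptide is MGWSCIILFLVATATGVHS.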

[2] = target: pneumococcal polysaccharide Pn39
Description: as §1

[3] = target: pneumococcal polysaccharide Pn4
Description: as §1

[4] = target: pneumococcal polysaccharide Pn40
Description: as §1

[5] = target: pneumococcal polysaccharide Pn41A
Description: as §1

[6] = target: pneumococcal polysaccharide Pn41F
Description: as §1

[7] = target: pneumococcal polysaccharide Pn42
Description: as §1

[8] = target: pneumococcal polysaccharide Pn43
Description: as §1

[9] = target: pneumococcal polysaccharide Pn44
Description: as §1

[10] = target: pneumococcal polysaccharide Pn45
Description: as §1

[11] = target: pneumococcal polysaccharide Pn46
Description: as §1

[12] = target: pneumococcal polysaccharide Pn47A
Description: as §1

[13] = antibody concentration 81.7561 ng/mL
[14] = antibody concentration 437.17 ng/mL
[15] = antibody concentration 2337.65 ng/mL
[16] = antibody concentration 12500 ng/mL
[17] = antibody concentration 0.1 ng/mL
[18] = antibody concentration 0.534724 ng/mL
[19] = antibody concentration 2.8593 ng/mL
[20] = antibody concentration 15.2894 ng/mL

B1: 4-99.5 (protein)
chain 1: QVQLQESGPGLVKPSETLSLTCAVSGYSISSGYYWGWIRQPPGKGLEYIGYISGSSGSPYYNPSLKSRVTISKDTSKNQFSLKLSSATAADTAVYYCARRQVGIGFDYWGQGVLVTVSS
chain 2: QAAPTQPPSVSGSPGQSVTISCTGTSSDIGYYNAVSWYQQHPGKAPKLMIYEVSKRPSGVSDRFSGSKSGNTASLTISGLQAEDEADYYCSSYAGSNTYIFGAGTRLTVL
In the case of B1, the fluorescence intensity [1, 13] is reported as 25.2 MFI, the fluorescence intensity [1, 14] is reported as 27 MFI and the fluorescence intensity [1, 15] is reported as 29.5 MFI. It also gave a fluorescence intensity [1, 16] of 36 MFI, a fluorescence intensity [2, 17] of 19.5 MFI and a fluorescence intensity [2, 18] of 18.5 MFI. The fluorescence intensity [2, 19] was 18 MFI, the fluorescence intensity [2, 20] was 18 MFI and the fluorescence intensity [2, 13] was 19.2 MFI. The fluorescence intensity [2, 14] was 18 MFI, the fluorescence intensity [2, 15] was 19.5 MFI and the fluorescence intensity [2, 16] was 31 MFI. For the same binder, the fluorescence intensity [3, 17] was 18.5 MFI, the fluorescence intensity [3, 18] was 19.2 MFI and the fluorescence intensity [3, 19] was 19.5 MFI. It also gave a fluorescence intensity [3, 20] of 19 MFI, a fluorescence intensity [3, 13] of 18.5 MFI and a fluorescence intensity [3, 14] of 20.5 MFI. The fluorescence intensity [3, 15] was 23 MFI, the fluorescence intensity [3, 16] was 31.8 MFI and the fluorescence intensity [4, 17] was 15.5 MFI. For the same binder, the fluorescence intensity [4, 18] was 16.5 MFI, the fluorescence intensity [4, 19] was 16 MFI and the fluorescence intensity [4, 20] was 18 MFI. The fluorescence intensity [4, 13] was 17 MFI, the fluorescence intensity [4, 14] was 17 MFI and the fluorescence intensity [4, 15] was 18.5 MFI. It also gave a fluorescence intensity [4, 16] of 31.5 MFI, a fluorescence intensity [5, 17] of 23 MFI and a fluorescence intensity [5, 18] of 23.5 MFI. It also gave a fluorescence intensity [5, 19] of 25 MFI, a fluorescence intensity [5, 20] of 23.5 MFI and a fluorescence intensity [5, 13] of 23.5 MFI. The fluorescence intensity [5, 14] was 24 MFI, the fluorescence intensity [5, 15] was 25 MFI and the fluorescence intensity [5, 16] was 27.2 MFI. It also gave a fluorescence intensity [6, 17] of 13.5 MFI, a fluorescence intensity [6, 18] of 13.5 MFI and a fluorescence intensity [6, 19] of 13 MFI. It also gave a fluorescence intensity [6, 20] of 14 MFI, a fluorescence intensity [6, 13] of 14 MFI and a fluorescence intensity [6, 14] of 13.5 MFI. It also gave a fluorescence intensity [6, 15] of 15 MFI, a fluorescence intensity [6, 16] of 19.2 MFI and a fluorescence intensity [7, 17] of 11.5 MFI. The fluorescence intensity [7, 18] was 11.5 MFI, the fluorescence intensity [7, 19] was 12.5 MFI and the fluorescence intensity [7, 20] was 12 MFI. The fluorescence intensity [7, 13] was 12 MFI, the fluorescence intensity [7, 14] was 12 MFI and the fluorescence intensity [7, 15] was 13 MFI. For the same binder, the fluorescence intensity [7, 16] was 17.5 MFI, the fluorescence intensity [8, 17] was 15 MFI and the fluorescence intensity [8, 18] was 16.5 MFI. The fluorescence intensity [8, 19] was 16.2 MFI, the fluorescence intensity [8, 20] was 15 MFI and the fluorescence intensity [8, 13] was 16 MFI. It also gave a fluorescence intensity [8, 14] of 16.5 MFI, a fluorescence intensity [8, 15] of 20 MFI and a fluorescence intensity [8, 16] of 47.2 MFI. For the same binder, the fluorescence intensity [9, 17] was 24.5 MFI, the fluorescence intensity [9, 18] was 25 MFI and the fluorescence intensity [9, 19] was 25 MFI. For the same binder, the fluorescence intensity [9, 20] was 25.5 MFI, the fluorescence intensity [9, 13] was 26.5 MFI and the fluorescence intensity [9, 14] was 26 MFI. For the same binder, the fluorescence intensity [9, 15] was 27 MFI, the fluorescence intensity [9, 16] was 30.5 MFI and the fluorescence intensity [10, 17] was 11 MFI. The fluorescence intensity [10, 18] was 11.5 MFI, the fluorescence intensity [10, 19] was 12 MFI and the fluorescence intensity [10, 20] was 11 MFI. For the same binder, the fluorescence intensity [10, 13] was 11.5 MFI, the fluorescence intensity [10, 14] was 10.5 MFI and the fluorescence intensity [10, 15] was 12.5 MFI. For the same binder, the fluorescence intensity [10, 16] was 16 MFI, the fluorescence intensity [11, 17] was 23.5 MFI and the fluorescence intensity [11, 18] was 24 MFI. The fluorescence intensity [11, 19] was 25 MFI, the fluorescence intensity [11, 20] was 24.5 MFI and the fluorescence intensity [11, 13] was 24.5 MFI. The fluorescence intensity [11, 14] was 24.5 MFI, the fluorescence intensity [11, 15] was 26 MFI and the fluorescence intensity [11, 16] was 34.8 MFI. It also gave a fluorescence intensity [12, 17] of 17 MFI, a fluorescence intensity [12, 18] of 16 MFI and a fluorescence intensity [12, 19] of 16.5 MFI. It also gave a fluorescence intensity [12, 20] of 16 MFI, a fluorescence intensity [12, 13] of 16 MFI and a fluorescence intensity [12, 14] of 16.5 MFI.
